Assay results: article PMC7862700
The other results are listed elsewhere or left out. The source does not settle which construct or isoform was used.

Each sequence was assayed against T1, ELF2 (UniProt Q15723) (assay: DAPPL (digital affinity profiling via proximity ligation, sequencing)). Conditions: 10 mM Tris-HCl pH 7.5, 50 mM NaCl, 1 mM DTT, 4% glycerol, room temperature, 30 min; GST-TFs on glutathione beads, 16-mer random dsDNA library, 0.1% …; high values mean tight binding; double strand, one strand shown; scale: fold enrichment (6-mer frequency, TF over GST control).
T1 sequence: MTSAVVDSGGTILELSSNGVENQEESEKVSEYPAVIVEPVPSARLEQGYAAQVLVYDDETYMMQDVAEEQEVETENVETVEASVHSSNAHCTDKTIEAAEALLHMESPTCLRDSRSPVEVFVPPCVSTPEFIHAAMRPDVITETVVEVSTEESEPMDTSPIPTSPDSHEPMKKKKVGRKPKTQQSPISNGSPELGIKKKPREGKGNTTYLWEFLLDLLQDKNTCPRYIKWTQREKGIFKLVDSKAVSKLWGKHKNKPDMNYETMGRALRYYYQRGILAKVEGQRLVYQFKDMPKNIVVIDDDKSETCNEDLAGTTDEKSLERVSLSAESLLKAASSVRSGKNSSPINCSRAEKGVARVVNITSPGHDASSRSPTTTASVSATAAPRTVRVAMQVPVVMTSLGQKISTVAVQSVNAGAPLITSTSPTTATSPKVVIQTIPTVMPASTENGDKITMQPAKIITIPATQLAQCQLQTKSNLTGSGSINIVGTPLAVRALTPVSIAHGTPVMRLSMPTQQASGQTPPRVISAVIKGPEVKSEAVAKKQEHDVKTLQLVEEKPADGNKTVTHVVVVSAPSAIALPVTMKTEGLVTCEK
For TGGTAC, the binding signal was 1.13.
Work on GGGCTT yielded a binding signal of 1.25.
In the case of TATCGA, the binding signal is reported as 1.24.
Work on TGTTCT yielded a binding signal of 1.27.
CTCTCA gave a binding signal of 1.27.
For CCTGGA, the binding signal was 1.53.
In the case of TACTTC, the binding signal is reported as 4.89.
Sequence CTCGCC has a binding signal of 1.17.
Sequence ATGGAC has a binding signal of 1.13.
CGATAC gave a binding signal of 1.14.
With CGACTT the binding signal was 1.86.
CTGACT showed a binding signal of 1.32.
Sequence CGAAAC has a binding signal of 1.2.
TAAAGT gave a binding signal of 1.11.
Work on ACTACT yielded a binding signal of 1.27.
GCTCGT gave a binding signal of 1.07.
For ATGACA, the binding signal was 1.23.
Work on CACGCT yielded a binding signal of 1.32.
In the case of GGTATT, the binding signal is reported as 1.28.
AATTGC showed a binding signal of 1.36.
GATTCT was tested, and the binding signal was 1.21.
GCTCGC was tested, and the binding signal was 1.35.
With TTTTCA the binding signal was 1.16.
Sequence CGACCT has a binding signal of 1.4.
TATGTA showed a binding signal of 1.21.
For TCTAAG, the binding signal was 1.14.
Work on CCGGAA yielded a binding signal of 9.21.
CACATT gave a binding signal of 1.15.
Work on TGTGGA yielded a binding signal of 0.995.
CGTTCA showed a binding signal of 1.09.
For GTATTA, the binding signal was 1.1.
For GCTTTC, the binding signal was 1.29.
GTTTAC was tested, and the binding signal was 1.12.
Work on CCTTGG yielded a binding signal of 1.22.
In the case of ACAGAT, the binding signal is reported as 0.994.
Sequence TTGAAC has a binding signal of 1.06.
TTCACC gave a binding signal of 1.32.
For CAGCTT, the binding signal was 1.26.
For GAATCC, the binding signal was 1.17.
